No constants are given. Whether binding was seen depends on the method and setting. Binding seen in cells or lysates may run through a third protein. Here binding means that the protein was enriched with, or labelled near, the bait; the list need not be complete.
Biological target: YFV-Asibi NS5 with C-terminal 2xStrep II affinity tag (yellow fever virus, strain Asibi) (UniProt Q6DV88)
Assay: affinity purification with mass spectrometry

By UniProt entry, the sequences of proteins in these tests, tags left out. Residues count along the entry.
UniProt Q6DV88, residues 2507-3411: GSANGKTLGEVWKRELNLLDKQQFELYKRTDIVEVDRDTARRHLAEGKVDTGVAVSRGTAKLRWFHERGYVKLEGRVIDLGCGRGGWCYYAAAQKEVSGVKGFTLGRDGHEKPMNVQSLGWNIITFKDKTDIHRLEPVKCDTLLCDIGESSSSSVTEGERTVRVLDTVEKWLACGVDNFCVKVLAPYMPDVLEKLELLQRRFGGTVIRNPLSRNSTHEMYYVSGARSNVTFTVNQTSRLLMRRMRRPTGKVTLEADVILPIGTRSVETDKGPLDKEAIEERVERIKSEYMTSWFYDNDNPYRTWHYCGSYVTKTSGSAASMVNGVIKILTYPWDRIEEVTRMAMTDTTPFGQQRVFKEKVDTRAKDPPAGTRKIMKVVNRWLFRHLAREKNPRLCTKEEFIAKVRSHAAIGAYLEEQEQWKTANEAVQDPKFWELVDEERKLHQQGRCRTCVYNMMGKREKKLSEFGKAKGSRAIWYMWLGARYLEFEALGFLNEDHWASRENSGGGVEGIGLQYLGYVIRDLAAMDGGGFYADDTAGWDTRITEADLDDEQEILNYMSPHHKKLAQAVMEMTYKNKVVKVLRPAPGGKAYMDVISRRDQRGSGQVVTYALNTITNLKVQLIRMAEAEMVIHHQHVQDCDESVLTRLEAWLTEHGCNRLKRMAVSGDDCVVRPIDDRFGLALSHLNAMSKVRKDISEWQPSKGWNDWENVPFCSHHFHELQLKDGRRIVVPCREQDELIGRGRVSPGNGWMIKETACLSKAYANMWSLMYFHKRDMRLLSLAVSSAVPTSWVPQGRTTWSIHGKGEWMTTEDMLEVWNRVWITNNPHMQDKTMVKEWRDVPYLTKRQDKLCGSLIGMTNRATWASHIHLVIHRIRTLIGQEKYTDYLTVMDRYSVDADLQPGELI
UniProt Q7Z6E9: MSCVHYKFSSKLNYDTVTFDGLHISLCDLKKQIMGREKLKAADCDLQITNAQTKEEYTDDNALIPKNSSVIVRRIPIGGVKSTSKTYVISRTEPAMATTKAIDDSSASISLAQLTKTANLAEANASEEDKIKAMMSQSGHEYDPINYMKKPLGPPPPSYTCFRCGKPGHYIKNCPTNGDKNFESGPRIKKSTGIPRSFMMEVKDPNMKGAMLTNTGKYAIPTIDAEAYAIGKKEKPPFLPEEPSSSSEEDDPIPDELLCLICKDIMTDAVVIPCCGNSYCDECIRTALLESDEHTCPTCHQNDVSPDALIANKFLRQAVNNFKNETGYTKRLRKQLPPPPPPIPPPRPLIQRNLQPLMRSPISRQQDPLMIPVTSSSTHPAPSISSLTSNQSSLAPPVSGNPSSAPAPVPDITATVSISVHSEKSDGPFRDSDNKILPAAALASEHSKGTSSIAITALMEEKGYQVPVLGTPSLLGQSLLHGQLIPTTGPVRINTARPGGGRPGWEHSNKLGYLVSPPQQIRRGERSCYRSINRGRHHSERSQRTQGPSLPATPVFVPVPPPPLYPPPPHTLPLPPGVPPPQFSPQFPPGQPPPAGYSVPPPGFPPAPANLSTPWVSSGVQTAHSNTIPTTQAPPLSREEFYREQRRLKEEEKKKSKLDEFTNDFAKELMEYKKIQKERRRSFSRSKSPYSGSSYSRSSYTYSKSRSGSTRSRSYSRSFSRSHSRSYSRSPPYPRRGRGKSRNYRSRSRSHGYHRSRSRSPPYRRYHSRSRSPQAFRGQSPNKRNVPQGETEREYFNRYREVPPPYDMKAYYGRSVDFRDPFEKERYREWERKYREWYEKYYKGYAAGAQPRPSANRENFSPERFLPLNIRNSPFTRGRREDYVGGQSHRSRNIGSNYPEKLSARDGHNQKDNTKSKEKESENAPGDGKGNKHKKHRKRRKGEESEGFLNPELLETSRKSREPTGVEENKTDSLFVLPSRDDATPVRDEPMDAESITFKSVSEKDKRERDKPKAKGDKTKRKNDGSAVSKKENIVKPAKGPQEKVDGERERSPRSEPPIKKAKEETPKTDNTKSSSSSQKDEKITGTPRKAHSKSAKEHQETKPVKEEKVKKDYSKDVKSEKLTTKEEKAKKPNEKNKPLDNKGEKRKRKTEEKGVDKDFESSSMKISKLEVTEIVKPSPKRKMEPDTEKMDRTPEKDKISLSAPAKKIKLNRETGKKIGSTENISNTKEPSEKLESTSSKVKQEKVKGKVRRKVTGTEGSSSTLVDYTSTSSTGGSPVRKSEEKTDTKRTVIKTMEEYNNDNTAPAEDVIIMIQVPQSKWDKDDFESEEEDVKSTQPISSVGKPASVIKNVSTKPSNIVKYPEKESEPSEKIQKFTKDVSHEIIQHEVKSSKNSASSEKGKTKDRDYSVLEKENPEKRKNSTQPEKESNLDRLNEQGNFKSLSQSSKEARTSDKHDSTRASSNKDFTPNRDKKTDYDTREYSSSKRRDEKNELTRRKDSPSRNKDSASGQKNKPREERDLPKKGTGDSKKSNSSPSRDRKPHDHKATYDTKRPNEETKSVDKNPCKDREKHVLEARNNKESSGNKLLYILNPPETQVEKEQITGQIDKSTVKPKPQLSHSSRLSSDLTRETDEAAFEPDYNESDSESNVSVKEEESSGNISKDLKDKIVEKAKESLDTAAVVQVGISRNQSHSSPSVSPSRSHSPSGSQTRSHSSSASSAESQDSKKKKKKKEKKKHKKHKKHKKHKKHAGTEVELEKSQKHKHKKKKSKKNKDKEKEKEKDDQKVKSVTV

## RBBP6 (retinoblastoma binding protein 6), endogenous in HEK293T (from UniProt Q7Z6E9 1-1792)
  binding: binds
